# Where a name gives a salt, the structure may show the parent alone. The list shows a part of the results. Repeats in this data set agree poorly, so a single value says little.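 A first-round screen of about ten thousand compounds sought those raising reporter output, using human embryonic kidney cells briefly transfected with a plasmid carrying a Renilla luciferase gene driven by the HSV-TK promoter.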
# Tested on: HEK 293FT
# Assay: log relative Renilla luciferase luminescence (reporter expression vs reference, reference not stated) (log (base not stated)); higher = higher recombinant reporter expression
# Settings: 10 µM; time after transfection 48 h
row,Compound,log
1,CC[C@@H](CO)NC(=O)[C@@H]1C=C2c3cccc4[nH]cc(c34)C[C@H]2N(C)C1 [Methylergometrine maleate],0.0159
2,C[C@@H]1C[C@@H]([C@H](O)CC2CC(=O)NC(=O)C2)C(=O)[C@@H](C)C1 [Cycloheximide],-1.02
3,Cc1cc(C(C#N)c2ccc(Cl)cc2)c(Cl)cc1NC(=O)c1cc(I)cc(I)c1O (stereo not given) [Closantel],-1.82
4,O=c1[nH]oc2c1CCNC2 [THIP Hydrochloride],0.0542
5,NCC1(CC(=O)O)CCCCC1 [Gabapentin],-0.044
6,C=C1CC[C@@]2(O)[C@H]3Cc4ccc(O)c5c4[C@@]2(CCN3CC2CC2)[C@H]1O5 [Nalmefene hydrochloride],-0.0173
7,O=[N+]([O-])O[C@H]1CO[C@H]2[C@@H]1OC[C@H]2O[N+](=O)[O-] [Isosorbide dinitrate],0.172
8,O=C(CCCN1CCC2(CC1)C(=O)NCN2c1ccccc1)c1ccc(F)cc1 [Spiperone],-0.0173
9,CC(N)C(O)c1ccccc1 (stereo not given) [Phenylpropanolamine hydrochloride],-0.0382
10,CCOC(=O)c1cncn1[C@H](C)c1ccccc1 [Etomidate],-0.00193
11,CC(O)(CS(=O)(=O)c1ccc(F)cc1)C(=O)Nc1ccc(C#N)c(C(F)(F)F)c1 (stereo not given) [Bicalutamide],-0.012
12,CC(C)c1cccc(C(C)C)c1O [Propofol],0.154
13,C[C@]12CC[C@H](O)C[C@H]1CC[C@@H]1[C@@H]2CC[C@]2(C)[C@@H](C3=CC(=O)OC3)CC[C@]12O [Digitoxigenin],-1.07
14,CN1C[C@H](CNC(=O)OCc2ccccc2)C[C@@H]2c3cccc4c3c(cn4C)C[C@H]21 [Metergoline],-1.38
15,CC(=O)O[C@H]1CC[C@@]2(C)C(=CC[C@@H]3[C@@H]2CC[C@]2(C)C(=O)CC[C@@H]32)C1 [Dehydroisoandosterone 3-acetate],0.154
16,O=C(NCNC(=O)NC1C(=O)NC(=O)N1CO)NC1C(=O)NC(=O)N1CO (stereo not given) [Imidurea],0.0669
17,Oc1ccc2c3c1O[C@H]1[C@@H](O)CC[C@@]4(O)[C@@H](C2)N(CC2CCC2)CC[C@]314 [Nalbuphine hydrochloride],0.0422
18,COc1cc2c(c(OC)c1OC)-c1ccc(OC)c(=O)cc1[C@@H](NC(C)=O)CC2 [Colchicine],0.093
19,CCCCCC[C@H]1C(=O)O[C@H](C)[C@H](NC(=O)c2cccc(NC=O)c2O)C(=O)O[C@@H](C)[C@@H]1OC(=O)CC(C)C [Antimycin A],-1.22
20,c1ccc2c(c1)OCC(C1=NCCN1)O2 (stereo not given) [Idazoxan hydrochloride],0.0842

row,Compound,log
1,CC[N+]1(C)CCCC(OC(=O)C(O)(c2ccccc2)c2ccccc2)C1 (stereo not given) [Pipenzolate bromide],0.0554
2,O=c1c2ccccc2[se]n1-c1ccccc1 [Ebselen],-1.39
3,CC(=O)O[C@H]1C[C@@H]2CC[C@@H]3[C@H](CC[C@@]4(C)[C@H]3C[C@H]([N+]3(C)CCCCC3)[C@@H]4OC(C)=O)[C@@]2(C)C[C@@H]1[N+]1(C)CCCCC1 [Pancuronium bromide],-0.058
4,CCCC(C)C1(CC)C(=O)NC(=O)NC1=O (stereo not given) [Pentobarbital],-0.155
5,C[C@]12C[C@H]3S[C@H]3C[C@@H]1CC[C@@H]1[C@@H]2CC[C@]2(C)[C@@H](O)CC[C@@H]12 [Epitiostanol],-0.0407
6,COP(=O)(OC)C(O)C(Cl)(Cl)Cl (stereo not given) [Trichlorfon],-0.0759
7,C=CCN1CC[C@]23c4c5ccc(O)c4O[C@H]2C(=O)CC[C@@]3(O)[C@H]1C5 [Naloxone hydrochloride],-0.0188
8,C(#CCN1CCCC1)CN1CCCC1 [Tremorine dihydrochloride],-0.403
9,C[C@]12CCC(=O)C=C1C=C[C@@H]1[C@@H]2CC[C@@]2(C)[C@H]1CC[C@@]2(O)CCC(=O)O [Canrenoic acid potassium salt],0.0956
10,C#C[C@]1(O)CC[C@H]2[C@@H]3CCC4=CC(=O)CCC4=C3C=C[C@@]21CC [Gestrinone],-0.415
11,CN1[C@@H]2C[C@@H](OC(=O)[C@H](CO)c3ccccc3)C[C@H]1[C@@H]1O[C@@H]12 [Scopolamine hydrochloride],-0.0393
12,"NCC(CC(=O)O)c1ccc(Cl)cc1 (racemic) [Baclofen (R,S)]",-0.0311
13,N[C@@H]1C[C@H]1c1ccccc1 [Tranylcypromine hydrochloride],0.23
14,O=C1CC[C@@]2(O)[C@H]3Cc4ccc(O)c5c4[C@@]2(CCN3CC2CC2)[C@H]1O5 [Naltrexone hydrochloride dihydrate],0.0822
15,CN[C@@H]1[C@@H](O)[C@@H](O[C@@H]2[C@@H](O)[C@H](O[C@H]3O[C@H](CN)CC[C@H]3N)[C@@H](N)C[C@H]2N)OC[C@]1(C)O.CN[C@@H]1[C@@H](O)[C@@H](O[C@@H]2[C@@H](O)[C@H](O[C@H]3O[C@H]([C@@H](C)N)CC[C@H]3N)[C@@H](N)C[C@H]2N)OC[C@]1(C)O.CN[C@@H]1[C@@H](O)[C@@H](O[C@@H]2[C@@H](O)[C@H](O[C@H]3O[C@H]([C@@H](C)NC)CC[C@H]3N)[C@@H](N)C[C@H]2N)OC[C@]1(C)O [Gentamicine sulfate],0.03
16,CC(NC(C)(C)C)C(=O)c1cccc(Cl)c1 (stereo not given) [Bupropion hydrochloride],-0.0681
17,"CN1CCC2(C)c3cc(O)ccc3N(C)C12 (single isomer, unassigned; (-)) [(-)-Eseroline fumarate salt]",0.0511
18,CC1OC(OC2/C=C/C=C/C=C/C=C/CC/C=C/C=C/[C@H](C)[C@@H](O)[C@@H](C)[C@H](C)OC(=O)CC(O)CC(O)CC(O)CCC(O)C(O)C[C@]3(O)CC(O)C(C(=O)O)C(C2)O3)C(O)C(N)C1O (stereo not given in full) [Nystatine],0.0241
19,NCCCNCCSP(=O)(O)O [Amifostine],0.00934
20,NCCC(O)C(=O)NC1CC(N)C(OC2OC(CN)C(O)[C@H](O)[C@@H]2N)[C@H](OC2O[C@H](CO)[C@@H](O)[C@@H]2O)[C@@H]1O (stereo not given in full) [Butirosin disulfate salt],0.157

# Structures shown so far with a cyano group (2):
row,Compound,log
3,Cc1cc(C(C#N)c2ccc(Cl)cc2)c(Cl)cc1NC(=O)c1cc(I)cc(I)c1O (stereo not given) [Closantel],-1.82
11,CC(O)(CS(=O)(=O)c1ccc(F)cc1)C(=O)Nc1ccc(C#N)c(C(F)(F)F)c1 (stereo not given) [Bicalutamide],-0.012

# Reference: the supplement of paper PMC7024190
